In paper PMC11048102 one finds binding data, which are given here for one substance.

Sequences of proteins named here, by UniProt entry; tags and fusion partners are left off. A change or cut given only in a name is not applied to a line headed by its entry. A line that says so, or that is headed by a name, gives the form on record, which may keep a tag or linker. Residues count along the entry.
UniProt P35228: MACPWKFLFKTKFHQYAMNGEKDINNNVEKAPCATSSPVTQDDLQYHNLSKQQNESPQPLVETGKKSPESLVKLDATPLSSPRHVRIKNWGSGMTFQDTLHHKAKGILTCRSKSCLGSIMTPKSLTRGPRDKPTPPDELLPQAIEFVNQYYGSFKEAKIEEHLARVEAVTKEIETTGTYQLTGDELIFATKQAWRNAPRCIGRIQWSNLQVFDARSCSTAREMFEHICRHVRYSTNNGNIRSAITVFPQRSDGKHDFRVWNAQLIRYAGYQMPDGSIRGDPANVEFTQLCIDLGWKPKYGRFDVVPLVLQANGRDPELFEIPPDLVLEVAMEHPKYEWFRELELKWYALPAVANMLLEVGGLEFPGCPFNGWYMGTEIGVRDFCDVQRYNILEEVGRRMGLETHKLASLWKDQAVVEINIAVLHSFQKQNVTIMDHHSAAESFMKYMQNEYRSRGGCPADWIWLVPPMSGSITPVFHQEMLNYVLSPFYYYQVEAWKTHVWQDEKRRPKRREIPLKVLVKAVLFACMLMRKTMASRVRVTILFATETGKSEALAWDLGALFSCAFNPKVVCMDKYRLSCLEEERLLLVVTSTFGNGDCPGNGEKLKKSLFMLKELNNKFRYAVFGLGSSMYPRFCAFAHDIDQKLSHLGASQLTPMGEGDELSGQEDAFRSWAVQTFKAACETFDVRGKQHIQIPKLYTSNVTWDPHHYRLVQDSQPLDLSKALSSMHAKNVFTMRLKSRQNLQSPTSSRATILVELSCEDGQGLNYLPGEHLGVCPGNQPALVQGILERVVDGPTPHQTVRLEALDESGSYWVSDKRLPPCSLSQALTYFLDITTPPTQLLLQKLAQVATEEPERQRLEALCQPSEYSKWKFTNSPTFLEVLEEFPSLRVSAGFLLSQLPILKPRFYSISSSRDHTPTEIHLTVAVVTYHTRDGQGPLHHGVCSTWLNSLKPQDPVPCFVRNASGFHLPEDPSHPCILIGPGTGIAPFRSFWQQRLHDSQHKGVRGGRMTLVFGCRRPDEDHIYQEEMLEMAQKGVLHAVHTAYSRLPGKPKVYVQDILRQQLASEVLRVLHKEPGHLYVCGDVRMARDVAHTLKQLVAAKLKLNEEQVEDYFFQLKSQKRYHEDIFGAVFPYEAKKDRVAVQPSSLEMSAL
AcGFP1-tagged human iNOS fragment (amino acids 181–335): residues 181-335 of P35228
UniProt Q09028: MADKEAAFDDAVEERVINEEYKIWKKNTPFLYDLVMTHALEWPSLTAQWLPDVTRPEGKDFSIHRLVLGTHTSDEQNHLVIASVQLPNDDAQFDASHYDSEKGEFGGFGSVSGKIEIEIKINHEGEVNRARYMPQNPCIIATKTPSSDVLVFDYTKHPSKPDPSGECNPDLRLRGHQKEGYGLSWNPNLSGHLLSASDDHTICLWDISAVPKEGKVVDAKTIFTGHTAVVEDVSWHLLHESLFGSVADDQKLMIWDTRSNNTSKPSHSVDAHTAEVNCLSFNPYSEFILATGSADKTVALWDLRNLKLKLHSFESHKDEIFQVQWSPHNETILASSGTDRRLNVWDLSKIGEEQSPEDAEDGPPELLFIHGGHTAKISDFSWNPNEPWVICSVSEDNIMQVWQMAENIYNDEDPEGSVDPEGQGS

No constants are given. Whether binding was seen depends on the method and setting. In cells and extracts the contact can be indirect. Some entries that bind do so weakly or less than the wild type.

Experiment [1] addresses AcGFP1-tagged whole (full-length) human iNOS (human) (UniProt P35228). The experiment in a line: co-IP; Matchmaker chemiluminescent Co-IP: HEK293 co-transfected with AcGFP1-bait and ProLabel-prey; 250 µg lysate, Living Colors full-length GFP polyclonal antibody, protein A/G plus agarose beads overnight at 4 °C; ProLabel luminescence (RLU) of the beads read over time.
Experiment [2] has as its target AcGFP1-tagged human iNOS fragment (amino acids 181–335) (human) (UniProt P35228). The experiment is described as above.

On to “ProLabel-tagged RbBP4 (from UniProt Q09028 1-425)”, for which the binding entry in experiment [1] and in experiment [2] was “binds” throughout.
